According to paper PMC4231735:
No constants are given. Whether binding was seen depends on the method and setting. In cells and extracts the contact can be indirect. A yes stands for co-enrichment or nearness to the bait. Other partners may have been found. For part of these data: No binding means not detected with the bait. For part of these data: Sequences can lack the tags named with a protein. Blank lines part the entries; values can stand above or below the binder they belong to.

Chains of the proteins cited; added tags and fusions are not shown.
UniProt P40160: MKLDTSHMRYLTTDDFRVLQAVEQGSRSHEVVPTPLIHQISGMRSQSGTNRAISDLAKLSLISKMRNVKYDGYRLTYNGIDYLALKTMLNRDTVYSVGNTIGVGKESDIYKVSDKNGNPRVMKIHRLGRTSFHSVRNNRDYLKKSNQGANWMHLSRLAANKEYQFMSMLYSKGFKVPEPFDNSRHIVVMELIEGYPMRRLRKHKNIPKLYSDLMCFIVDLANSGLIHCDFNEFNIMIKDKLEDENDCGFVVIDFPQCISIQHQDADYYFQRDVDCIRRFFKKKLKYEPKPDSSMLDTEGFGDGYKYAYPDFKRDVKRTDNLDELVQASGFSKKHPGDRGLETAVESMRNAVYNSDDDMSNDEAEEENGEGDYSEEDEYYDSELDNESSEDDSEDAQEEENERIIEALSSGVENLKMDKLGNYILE

Legend:
[1] = target: HTP-tagged Rio2 (S. cerevisiae) (UniProt P40160); assay: affinity purification with mass spectrometry; HTP-tagged bait purified from yeast by a fast IgG affinity purification protocol; associated proteins quantified by label-free LC-MS; two (Rio2) or three (Rio1) replicates
[2] = target: T1, HTP-tagged Rio1 (S. cerevisiae), Q12196; assay: as above; details: remark: other sources report otherwise
T1 chain: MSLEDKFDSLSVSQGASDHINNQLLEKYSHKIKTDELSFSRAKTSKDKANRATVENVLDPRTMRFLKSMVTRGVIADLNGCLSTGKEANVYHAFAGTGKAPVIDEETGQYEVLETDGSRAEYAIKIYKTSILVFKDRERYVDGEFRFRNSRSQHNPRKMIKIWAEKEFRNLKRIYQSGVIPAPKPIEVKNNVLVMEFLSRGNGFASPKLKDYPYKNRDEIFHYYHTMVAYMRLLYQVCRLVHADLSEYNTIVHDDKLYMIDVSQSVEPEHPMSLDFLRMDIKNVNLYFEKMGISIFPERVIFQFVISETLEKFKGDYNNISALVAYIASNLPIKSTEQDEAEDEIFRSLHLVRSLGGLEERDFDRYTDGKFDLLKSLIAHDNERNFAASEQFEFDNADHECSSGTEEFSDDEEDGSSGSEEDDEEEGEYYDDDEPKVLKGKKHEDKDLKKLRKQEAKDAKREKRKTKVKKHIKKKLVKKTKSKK

- binding [1]: no binding
B1: Rio1 (protein, UniProt Q12196 1-484)
chain: T1 chain

- binding [2]: binds
B2: Dim2, Q99216 1-274 (protein)
chain: MVAPTALKKATVTPVSGQDGGSSRIIGINNTESIDEDDDDDVLLDDSDNNTAKEEVEGEEGSRKTHESKTVVVDDQGKPRFTSASKTQGNKIKFESRKIMVPPHRMTPLRNSWTKIYPPLVEHLKLQVRMNLKTKSVELRTNPKFTTDPGALQKGADFIKAFTLGFDLDDSIALLRLDDLYIETFEVKDVKTLTGDHLSRAIGRIAGKDGKTKFAIENATRTRIVLADSKIHILGGFTHIRMARESVVSLILGSPPGKVYGNLRTVASRLKERY

- binding [2]: binds
B3: Nob1, Q08444 1-459 (protein)
chain: MTENQTAHVRALILDATPLITQSYTHYQNYAQSFYTTPTVFQEIKDAQARKNLEIWQSLGTLKLVHPSENSIAKVSTFAKLTGDYSVLSANDLHILALTYELEIKLNNGDWRLRKKPGDALDASKADVGTDGKQKLTEDNKKEEDSESVPKKKNKRRGGKKQKAKREAREAREAENANLELESKAEEHVEEAGSKEQICNDENIKESSDLNEVFEDADDDGDWITPENLTEAIIKDSGEDTTGSLGVEASEEDRHVALNRPENQVALATGDFAVQNVALQMNLNLMNFMSGLKIKRIRNYMLRCHACFKIFPLPKDGKPKHFCASCGGQGTLLRCAVSVDSRTGNVTPHLKSNFQWNNRGNRYSVASPLSKNSQKRYGKKGHVHSKPQENVILREDQKEYEKVIKQEEWTRRHNEKILNNWIGGGSADNYISPFAITGLKQHNVRIGKGRYVNSSKRRS
